# Reference: PubChem BioAssay AID2685 (National Center for Advancing Translational Sciences (NCATS), 2010)
# Some of the results follow. These are further read-outs of the screen, such as a control signal, another cell line or another target. No call is given for them. The list favours compounds with an active or inconclusive main result. Words in brackets tell the shape of the fitted curve; partial curves, single points and poor fits give uncertain potencies.
# Experiment: qHTS Assay for Lipid Storage Modulators in Drosophila S3 Cells;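 as to cell number change: cells counted by Cell Tracker Red CMTPX staining in the red channel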
# Conditions: BODIPY lipid droplet fluorescence, 18-24 h; for cell number change: measured here: cell count max response, cells fed with added oleic acid
# Outline: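 Drosophila S3 cells loaded with oleic acid (400 uM, as added) and compounds at several concentrations; lipid droplets imaged by 488-nm laser-scanning cytometry, 500–530 nm intensity and object ratio to cell channel. Percent activity normalized to 20 uM Triacsin C.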
# [1] = measured here: cell number channel AC50, cells fed with added oleic acid
# [2] = measured here: lipid fluorescence (Fed channel) AC50, cells fed with added oleic acid
Compound,AC50 [1],cell number change [%],AC50 [2]
CC(C)(C)c1cc2cccnc2n1Cc1cccc(Cl)c1,"6.51 µM [falling, single point]",–,–
Cc1cc(C)cc(N(CCC#N)C(=O)COC(=O)c2ccc(OCc3c(C)noc3C)cc2)c1,"6.51 µM [falling, single point]",–,–
O=C1c2nc3cc(-c4ccco4)[nH]n3c(=O)c2CN1C1CCCCC1,–,-28.7,"23.1 µM [falling, single point]"
O=C(O)c1cccc(S(=O)(=O)N2CCOCC2)c1,–,-14.6,"29.1 µM [falling, single point]"
Cc1ccn2c(C(=O)c3ccc(Cl)cc3)cnc2c1,"16.4 µM [rising, single point]",57.1,–
CCc1ccc(N=C2NC(=O)/C(=C/c3ccc(OCC(=O)O)c(OC)c3)S2)cc1,–,-0.702,"29.1 µM [rising, single point]"
CCOc1cc(C(=O)N(C)CC(=O)Nc2cccc3ccccc23)ccc1OC,–,-4.02,"20.6 µM [falling, single point]"
C=CCn1c(NCCc2ccccc2)nc2c1c(=O)n(C)c(=O)n2C,–,-74.7,"29.1 µM [falling, single point]"
COc1ccc(OC)c(-n2c(-c3ccn[nH]3)n[nH]c2=S)c1,–,16.5,–
c1ccc2c(c1)CCN(c1nc3ccccc3n3cnnc13)C2,"1.84 µM [rising, full curve]",76.5,"2.31 µM [rising, full curve]"
CCOc1ccc2oc(C(=O)N(CC)CC(=O)Nc3c(F)cccc3F)c(C)c2c1,–,–,"0.116 µM [rising, full curve, poor fit]"
CCOC(=O)N1CCN(C(=O)CN2C(=O)NC(c3ccccc3)(c3ccccc3)C2=O)CC1,–,29.5,–
COC(=O)c1ccc(OCC(O)CNCC(c2ccc(OC)cc2)N(C)C)c(OC)c1 (stereo unspecified),–,5.88,–
O=C(CN1CCOCC1)Nc1ccc2c(c1)OCO2,–,63.9,–
Cc1ccc2nc3c(c(N)c2c1)CCN3c1ccccc1,–,-11.6,"0.0366 µM [rising, full curve, poor fit]"
CCc1nnc(NC(=O)c2ccc3nc(CC)c(CC)nc3c2)s1,"6.51 µM [falling, single point]",-3.92,–
CC1=NN(c2nc(-c3ccc(C)cc3)cs2)C(=O)C1N=Nc1ccc2ccccc2c1 (stereo unspecified),"6.51 µM [falling, single point]",0.668,"6.51 µM [falling, partial curve, poor fit]"
O=C(CSc1nnc(CNC(=O)c2cccs2)o1)Nc1ccccc1C(F)(F)F,–,11.3,–
Cc1cc(C(=O)N2CCCC(CO)(Cc3ccc(F)cc3)C2)c(C)o1 (stereo unspecified),"0.0731 µM [rising, full curve, poor fit]",18.2,"29.1 µM [falling, single point]"
O=C1/C(=C/c2ccncc2)CCC/C1=C\c1ccncc1,"18.4 µM [falling, single point]",-64.5,"18.4 µM [falling, single point]"
Nn1c(SCC(=O)Nc2ccc(S(N)(=O)=O)cc2)nnc1-c1ccco1,–,-2.37,–

# Retrieved by structure from above (2):
Compound,AC50 [1],cell number change [%],AC50 [2]
CCOc1ccc2oc(C(=O)N(CC)CC(=O)Nc3c(F)cccc3F)c(C)c2c1,–,–,"0.116 µM [rising, full curve, poor fit]"
CCOc1cc(C(=O)N(C)CC(=O)Nc2cccc3ccccc23)ccc1OC,–,-4.02,"20.6 µM [falling, single point]"

# (list continues)

Compound,AC50 [1],cell number change [%],AC50 [2]
CCc1ccc(/C=N/Nc2ncnc3nc[nH]c23)cc1,–,-15.2,"0.58 µM [falling, full curve, poor fit]"
COc1cc(CN2CC(=O)N(c3ccc(C)c(C)c3)C2=S)cc(OC)c1OC,–,4.55,"3.66 µM [rising, single point]"
COCCCNCCCCOc1ccc(Br)cc1Cl,–,-9.36,–
Cc1ccc(C(=O)NC(=S)Nc2ccccc2C)cc1,–,5.5,–
Cc1cc(C)c2cc(C(=O)Nc3ccc(C)c(F)c3)[nH]c2c1,"20.6 µM [falling, single point]",-31.2,"20.6 µM [falling, single point]"
COc1ccc(CN(C)C(=O)c2ccc(Cl)c(S(=O)(=O)NCc3cccnc3)c2)cc1F,–,-24.7,"6.51 µM [falling, single point]"
O=C(c1cccs1)N1CCN(S(=O)(=O)c2cccs2)CC1,"0.206 µM [falling, full curve]",-3.25,"0.82 µM [falling, full curve]"
CCN1CCN(C(=S)Nc2ccc3nc(N4CCN(C)CC4)cc(C)c3c2)CC1,"4.11 µM [rising, single point]",–,"6.51 µM [rising, single point]"
N#CC(c1ccncc1)(c1ncc(C(F)(F)F)cc1Cl)N1CCOCC1 (stereo unspecified),–,-41.5,–
COc1cc(C(=O)NCc2nnc(SCC(=O)N3CCCc4ccccc43)o2)cc(OC)c1OC,"3.66 µM [falling, single point]",-7.87,–
CN(C(=O)CSc1nncn1-c1ccccc1)c1ccccc1,–,-0.833,–
COc1cc2c(cc1OC)CN(CCOc1ccc(Br)cc1)CC2,"29.1 µM [rising, single point]",43.2,–
CCOC(=O)CSc1nc(C2CC2)nc2ccccc12,–,–,"29.1 µM [falling, single point]"
COc1ccc(CCNC(=O)CCCc2ccccc2)cc1OC,–,-21.9,"0.00517 µM [falling, full curve]"
C=C(C)C1CC=C(C)/C(=N/NC(=O)c2cccc([N+](=O)[O-])c2)C1 (stereo unspecified),"11.6 µM [rising, partial curve, poor fit]",32.6,–
O=C(CN(C(=O)CCC(=O)Nc1nccs1)c1cccc(F)c1)NCc1ccc2c(c1)OCO2,"29.1 µM [rising, single point]",77,"29.1 µM [rising, single point]"
CCCOc1ccc(/C=N/Nc2ccccc2[N+](=O)[O-])c(O)c1,–,-23.7,"0.13 µM [rising, partial curve]"
O=C(NC1C2CC3CC(C2)CC1C3)c1ccc(Br)o1 (stereo unspecified),"18.4 µM [falling, partial curve, poor fit]",-40.3,"29.1 µM [falling, single point]"
CS(=O)(=O)N(CC(=O)Nc1ccc(F)cc1)C1CCCCC1,–,21.1,"5.62 µM [rising, single point]"
CC(=O)Nc1ccc2ccccc2c1,–,–,"29.1 µM [falling, single point]"
CN(C)C1=NC[C@H](Cc2ccccc2)N1CCc1ccc(F)cc1,–,17,–

# In a second layout: results already given.
Compound | AC50 [1] | cell number change [%] | AC50 [2]
O=C1c2nc3cc(-c4ccco4)[nH]n3c(=O)c2CN1C1CCCCC1 | – | -28.7 | 23.1 µM [falling, single point]
CN(C(=O)CSc1nncn1-c1ccccc1)c1ccccc1 | – | -0.833 | –
CCCOc1ccc(/C=N/Nc2ccccc2[N+](=O)[O-])c(O)c1 | – | -23.7 | 0.13 µM [rising, partial curve]

# Continuation:

Compound,AC50 [1],cell number change [%],AC50 [2]
Cc1onc(-c2ccccc2)c1C(=O)N1CCN(S(=O)(=O)c2ccc(Cl)cc2)CC1,–,15.4,"6.51 µM [rising, single point]"
O=C(NCc1ccc(Cl)cc1)c1ccc(COCC(F)(F)F)o1,"0.13 µM [falling, full curve, poor fit]",–,"0.58 µM [falling, single point]"
C=CCn1c(C)cc(-c2csc(NC(=O)C3=COCCO3)n2)c1C,–,0.673,–
Cc1cc(/C=N/NC(=O)c2ccc(O)cc2)c(C)n1C1CC1,"1.16 µM [falling, full curve]",-39.8,–
CCN(CC)C(=O)CSc1nc2c(sc(=S)n2-c2ccccc2)c(=O)n1Cc1ccco1,"1.16 µM [rising, full curve]",91.9,"1.64 µM [rising, partial curve]"
CCOCC(=O)Nc1c(C(=O)Nc2ccc(OC)cc2OC)oc2ccccc12,"0.92 µM [rising, partial curve]",–,"0.92 µM [rising, partial curve]"
Cc1ccc(S(=O)(=O)N2CCN(C(=O)C3CCN(C(=O)c4ccccc4C)CC3)CC2)cc1C,–,23.2,"29.1 µM [rising, single point]"
Cc1cccc(Oc2coc3cc(OC(=O)c4cc5ccccc5oc4=O)ccc3c2=O)c1,–,-16.6,"0.092 µM [rising, full curve, poor fit]"
CN(C)/C=C(\C#N)C(N)=C(C#N)C#N,"16.4 µM [rising, single point]",46.4,–
CCc1cc(C(=O)c2ccc(OC)cc2)c(NC(=O)CN2CCCCC2)s1,–,-14.5,"0.731 µM [falling, single point]"
Cc1cccc(C(=O)NC(C)C(c2cccs2)N2CCOCC2)c1 (stereo unspecified),–,16.7,"6.51 µM [rising, single point]"
CCC1CCCCN1C(=O)CSc1nnc(-c2cccs2)o1 (stereo unspecified),–,-1.56,–
CC(C)C[C@H](NC(=O)OC(C)(C)C)C(=O)N1CCC(C(=O)N[C@@H](Cc2c[nH]c3ccccc23)C(=O)O)CC1,–,10.4,"29.1 µM [rising, single point]"
CCCC(=O)OCC(=O)Nc1ccc2c(c1)OCO2,"0.13 µM [rising, single point]",–,"0.103 µM [rising, partial curve, poor fit]"
CC(=O)Oc1ccc2cc(-c3nc4ccccc4n3C)c(=O)oc2c1,–,2.53,–
COc1ccc2nc(NC(=O)Nc3ccccc3)sc2c1,"23.1 µM [falling, partial curve, poor fit]",-44.5,"32.6 µM [falling, partial curve]"
CCn1cc(Cl)c(C(=O)N2N=C(c3ccc4ccccc4c3)CC2c2ccccc2O)n1 (stereo unspecified),"16.4 µM [falling, single point]",-51.8,"18.4 µM [falling, single point]"
O=C(Nc1ccncc1)c1ccc(Br)cc1,–,17.9,"29.1 µM [rising, single point]"
COCCn1c(-c2ccc3ccccc3c2)nc2c1c(=O)[nH]c(=O)n2CC(C)C,–,7.66,–
Cc1nn(CC(=O)OCC(=O)NC(C)c2ccccc2)c(C)c1[N+](=O)[O-] (stereo unspecified),"23.1 µM [rising, partial curve, poor fit]",130,"29.1 µM [rising, partial curve]"
